Cleaved PARP after 72 h of treatment

Source: doi:10.1371/journal.pone.0140310, primary screening data, rounded.

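Human melanoma cells were exposed to a pair of drugs for 72 h in 1,536-well plates and read by automated microscopy after fixing and staining. Each value is the cleaved-PARP-positive fraction of nuclei relative to DMSO-treated wells, in %, so that 100 equals the control and higher values mean more apoptosis. Concentrations were fixed for each drug; these are the higher of two levels. No replicate spread is given; individual values may be noisy. Basal and induced levels differ widely between cell lines.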 Only some of the drugs and lines screened are listed, without regard to their results. An entry leaves out what has no value listed here. A dash means that no value is listed here.

Every entry is a combination with cediranib at 2 µM: COc1cc2c(Oc3ccc4[nH]c(C)cc4c3F)ncnc2cc1OCCCN1CCCC1

Compounds and concentrations:
tozasertib (0.03 µM): Cc1cc(Nc2cc(N3CCN(C)CC3)nc(Sc3ccc(NC(=O)C4CC4)cc3)n2)n[nH]1
PD173074 (0.5 µM): CCN(CC)CCCCNc1ncc2cc(-c3cc(OC)cc(OC)c3)c(NC(=O)NC(C)(C)C)nc2n1
erlotinib (4 µM): C#Cc1cccc(Nc2ncnc3cc(OCCOC)c(OCCOC)cc23)c1
JZL184 (5 µM): O=C(Oc1ccc([N+](=O)[O-])cc1)N1CCC(C(O)(c2ccc3c(c2)OCO3)c2ccc3c(c2)OCO3)CC1
etoposide (0.1 µM): COc1cc([C@@H]2c3cc4c(cc3[C@@H](O[C@@H]3O[C@@H]5CO[C@@H](C)O[C@H]5[C@H](O)[C@H]3O)[C@H]3COC(=O)[C@H]23)OCO4)cc(OC)c1O
GW9662 (10 µM): O=C(Nc1ccccc1)c1cc([N+](=O)[O-])ccc1Cl
everolimus (0.1 µM): CO[C@H]1C[C@@H]2CC[C@@H](C)[C@@](O)(O2)C(=O)C(=O)N2CCCC[C@H]2C(=O)O[C@H]([C@H](C)C[C@@H]2CC[C@@H](OCCO)[C@H](OC)C2)CC(=O)[C@H](C)/C=C(\C)[C@@H](O)[C@@H](OC)C(=O)[C@H](C)C[C@H](C)/C=C/C=C/C=C/1C
BMS-536924 (1 µM): Cc1cc(N2CCOCC2)cc2[nH]c(-c3c(NC[C@@H](O)c4cccc(Cl)c4)cc[nH]c3=O)nc12
dovitinib (0.5 µM): CN1CCN(c2ccc3nc(-c4c(N)c5c(F)cccc5[nH]c4=O)[nH]c3c2)CC1
palbociclib (0.2 µM): CC(=O)c1c(C)c2cnc(Nc3ccc(N4CCNCC4)cn3)nc2n(C2CCCC2)c1=O
CHIR-265 (0.4 µM): Cn1c(Nc2ccc(C(F)(F)F)cc2)nc2cc(Oc3ccnc(-c4ncc(C(F)(F)F)[nH]4)c3)ccc21
gemcitabine (0.002 µM): Nc1ccn([C@@H]2O[C@H](CO)[C@@H](O)C2(F)F)c(=O)n1
IMD-0354 (0.08 µM): O=C(Nc1cc(C(F)(F)F)cc(C(F)(F)F)c1)c1cc(Cl)ccc1O
GW2580 (5 µM): COc1ccc(COc2ccc(Cc3cnc(N)nc3N)cc2OC)cc1
pioglitazone (10 µM): CCc1ccc(CCOc2ccc(CC3SC(=O)NC3=O)cc2)nc1 (centres undefined)
pazopanib (2 µM): Cc1ccc(Nc2nccc(N(C)c3ccc4c(C)n(C)nc4c3)n2)cc1S(N)(=O)=O
XAV939 (10 µM): Oc1nc(-c2ccc(C(F)(F)F)cc2)nc2c1CSCC2
PLX4720 (0.4 µM): CCCS(=O)(=O)Nc1ccc(F)c(C(=O)c2c[nH]c3ncc(Cl)cc23)c1F
sunitinib (2 µM): CCN(CC)CCNC(=O)c1c(C)[nH]c(/C=C2\C(=O)Nc3ccc(F)cc32)c1C
GSK0660 (5 µM): COC(=O)c1sccc1S(=O)(=O)Nc1ccc(Nc2ccccc2)cc1OC
perifosine (2 µM): CCCCCCCCCCCCCCCCCCOP(=O)([O-])OC1CC[N+](C)(C)CC1
midostaurin (0.4 µM): CO[C@@H]1[C@H](N(C)C(=O)c2ccccc2)C[C@H]2O[C@]1(C)n1c3ccccc3c3c4c(c5c6ccccc6n2c5c31)C(=O)NC4
lenalidomide (5 µM): Nc1cccc2c1CN(C1CCC(=O)NC1=O)C2=O (centres undefined)
tamatinib (2 µM): COc1cc(Nc2ncc(F)c(Nc3ccc4c(n3)NC(=O)C(C)(C)O4)n2)cc(OC)c1OC
selumetinib (0.075 µM): Cn1cnc2c(F)c(Nc3ccc(Br)cc3Cl)c(C(=O)NOCCO)cc21
PF-04217903 (5 µM): OCCn1cc(-c2cnc3nnn(Cc4ccc5ncccc5c4)c3n2)cn1
FH535 (5 µM): Cc1cc([N+](=O)[O-])ccc1NS(=O)(=O)c1cc(Cl)ccc1Cl
tanespimycin (0.01 µM): C=CCNC1=C2C[C@@H](C)C[C@H](OC)[C@H](O)[C@@H](C)/C=C(\C)[C@H](OC(N)=O)[C@@H](OC)/C=C\C=C(/C)C(=O)NC(=CC1=O)C2=O
NVP-TAE684 (0.4 µM): COc1cc(N2CCC(N3CCN(C)CC3)CC2)ccc1Nc1ncc(Cl)c(Nc2ccccc2S(=O)(=O)C(C)C)n1
nutlin-3 (0.5 µM): COc1ccc(C2=N[C@@H](c3ccc(Cl)cc3)[C@@H](c3ccc(Cl)cc3)N2C(=O)N2CCNC(=O)C2)c(OC(C)C)c1
temozolomide (10 µM): Cn1nnc2c(C(N)=O)ncn2c1=O
enzastaurin (4 µM): Cn1cc(C2=C(c3cn(C4CCN(Cc5ccccn5)CC4)c4ccccc34)C(=O)NC2=O)c2ccccc21
fludarabine (1 µM): Nc1nc(F)nc2c1ncn2[C@@H]1O[C@H](CO)[C@@H](O)[C@@H]1O
GSK650394 (0.8 µM): O=C(O)c1ccc(-c2c[nH]c3ncc(-c4ccccc4)cc23)cc1C1CCCC1
STA-4783 (0.03 µM): CN(NC(=O)CC(=O)NN(C)C(=S)c1ccccc1)C(=S)c1ccccc1
dasatinib (0.02 µM): Cc1nc(Nc2ncc(C(=O)Nc3c(C)cccc3Cl)s2)cc(N2CCN(CCO)CC2)n1
ZM336372 (10 µM): Cc1ccc(NC(=O)c2cccc(N(C)C)c2)cc1NC(=O)c1ccc(O)cc1
KU-0063794 (0.1 µM): COc1ccc(-c2ccc3c(N4CCOCC4)nc(N4C[C@@H](C)O[C@@H](C)C4)nc3n2)cc1CO

| # | Partner | WM1716 | WM1745 | COLO 800 | G-361 | WM115 | UACC-257 | RVH-421 | A101D | A2058 | WM451Lu | IPC-298 | RPMI-7951 | LB2518-MEL | SK-MEL-28 | SK-MEL-30 |
|---|---|---|---|---|---|---|---|---|---|---|---|---|---|---|---|---|
| 1 | NVP-TAE684 | 87.8 | 239 | 137 | 144 | 169 | 13.8 | 59.6 | 56.6 | 189 | 93.6 | 124 | 125 | 135 | 257 | 130 |
| 2 | pazopanib | 67.3 | 70.7 | 396 | 77.2 | 182 | 32.2 | 50.2 | 105 | 85.8 | 38.8 | 59.5 | 72.7 | 96.3 | 44.8 | 85.9 |
| 3 | GW2580 | 39.6 | 91.1 | 26.4 | 66.4 | 74.4 | 24.8 | 98.8 | 81.9 | 75.9 | 105 | 46.1 | 108 | 57.7 | 105 | 157 |
| 4 | tamatinib | 107 | 166 | 184 | 123 | 76.9 | 94.0 | 96.3 | 1370 | 187 | 106 | 56.1 | 148 | 252 | 149 | 204 |
| 5 | selumetinib | 33.6 | 92.3 | 104 | 108 | 221 | 62.0 | 52.7 | 94.7 | 154 | 84.0 | 115 | 72.6 | 161 | 47.8 | 181 |
| 6 | JZL184 | 154 | 141 | 223 | 89.4 | 191 | 24.1 | 97.5 | 110 | 124 | 45.6 | 38.3 | 84.6 | 69.5 | 39.4 | 144 |
| 7 | FH535 | 69.1 | 116 | 67.9 | 249 | 129 | 62.5 | 97.2 | 120 | 101 | 46.9 | 71.5 | 96.9 | 78.8 | 108 | 109 |
| 8 | tanespimycin | 75.9 | 160 | 201 | 146 | 1600 | 138 | 184 | 36.9 | 162 | 185 | 47.9 | 516 | 123 | 349 | 143 |
| 9 | sunitinib | 133 | 180 | 130 | 94.7 | 389 | 150 | 165 | 211 | 179 | 208 | 128 | 502 | 403 | 79.6 | 1060 |
| 10 | IMD-0354 | 191 | 134 | 183 | 129 | 161 | 67.4 | 40.2 | 173 | 106 | 52.3 | 54.4 | 289 | 213 | 32.6 | 195 |
| 11 | etoposide | 39.4 | 88.6 | 118 | 188 | 189 | 106 | 24.0 | 59.5 | 105 | 88.1 | 92.8 | 57.9 | 139 | 35.6 | 185 |
| 12 | lenalidomide | 119 | 104 | 90.4 | 89.0 | 55.3 | 35.5 | 97.0 | 187 | 82.8 | 113 | 36.5 | 50.4 | - | 60.2 | 82.0 |
| 13 | fludarabine | 106 | 244 | 78.3 | 169 | 259 | 2380 | 59.4 | 69.9 | 86.6 | 21.5 | 91.1 | 351 | 60.3 | 815 | 866 |
| 14 | PLX4720 | 395 | 139 | 160 | 155 | 84.5 | 37.0 | 33.6 | 708 | 174 | 87.1 | 251 | 129 | - | 54.4 | 177 |
| 15 | GW9662 | 13.6 | 133 | 156 | 114 | 138 | 31.2 | 215 | 146 | 70.5 | 267 | 42.1 | 231 | 75.3 | 135 | 202 |
| 16 | nutlin-3 | 76.4 | 99.7 | 130 | 208 | 70.5 | 99.0 | 217 | 135 | 70.1 | 39.9 | 68.4 | 131 | 119 | 113 | 83.1 |
| 17 | gemcitabine | 202 | 148 | 94.7 | 370 | 81.3 | 109 | 219 | 103 | 212 | 443 | 240 | 54.8 | 437 | 73.7 | 154 |
| 18 | PD173074 | 56.4 | 115 | 339 | 39.5 | 99.9 | 29.6 | 137 | 103 | 125 | 124 | 21.5 | 97.3 | 66.5 | 119 | 194 |
| 19 | STA-4783 | 159 | 248 | 139 | 435 | 2360 | 61.2 | 445 | 143 | 2530 | 135 | 127 | 235 | 201 | 127 | 58.8 |
| 20 | CHIR-265 | 174 | 153 | 219 | 520 | 564 | 42.7 | 154 | 317 | 150 | 264 | 451 | 531 | 285 | 69.2 | 321 |
| 21 | perifosine | 62.7 | 81.1 | 190 | 37.1 | 50.8 | 66.9 | 143 | 50.5 | 126 | 117 | 43.7 | 253 | 120 | 53.2 | 127 |
| 22 | pioglitazone | 20.9 | 97.3 | 59.9 | 48.3 | 112 | 14.5 | 54.9 | 184 | 140 | 125 | 21.1 | 64.9 | 103 | 78.3 | 106 |
| 23 | XAV939 | 77.0 | 138 | 112 | 29.2 | 102 | 78.3 | 48.3 | 275 | 71.4 | 30.1 | 59.5 | 177 | 119 | 106 | 54.3 |
| 24 | PF-04217903 | 94.4 | 146 | 120 | 107 | 106 | 47.2 | 56.7 | 39.5 | 89.9 | 43.3 | 143 | 98.5 | 114 | 67.0 | 140 |
| 25 | KU-0063794 | 94.2 | 105 | 154 | 98.6 | 108 | 23.8 | 151 | 79.8 | 68.2 | 57.1 | 51.5 | 72.3 | 68.1 | 386 | 224 |
| 26 | tozasertib | 252 | 155 | 320 | 98.3 | 365 | 53.1 | 288 | 56.2 | 109 | 223 | 69.4 | 51.3 | 72.3 | 84.1 | 58.8 |
| 27 | everolimus | 209 | 139 | 89.0 | 192 | 89.7 | 80.5 | 152 | 142 | 108 | 74.3 | 51.2 | 125 | 81.8 | 108 | 244 |
| 28 | GSK650394 | 123 | 246 | 147 | 195 | 62.2 | 91.7 | 78.6 | 54.9 | 116 | 62.9 | 132 | 54.3 | 99.3 | 106 | 164 |
| 29 | GSK0660 | 72.2 | 345 | 37.8 | 57.3 | 34.1 | 25.5 | 32.6 | 164 | 92.7 | 173 | 97.5 | 54.9 | 54.6 | 53.0 | 131 |
| 30 | palbociclib | 170 | 98.6 | 77.4 | 139 | 79.4 | 157 | 94.7 | 63.4 | 150 | 81.2 | 87.8 | 223 | 166 | 89.9 | 27.9 |
| 31 | erlotinib | 39.8 | 128 | 55.8 | 157 | 78.2 | 75.8 | 145 | 77.2 | 102 | 119 | 96.5 | 127 | 91.4 | 33.1 | 192 |
| 32 | dasatinib | 1270 | 191 | 54.5 | 58.7 | 151 | 145 | 372 | 178 | 477 | 346 | 37.7 | 480 | 104 | 325 | 276 |
| 33 | midostaurin | 73.9 | 175 | 165 | 240 | 245 | 93.6 | 163 | 111 | 143 | 116 | 54.0 | 170 | 104 | 135 | 284 |
| 34 | dovitinib | 60.6 | 237 | 195 | 191 | 164 | 194 | 113 | 152 | 868 | 68.9 | 113 | 164 | 190 | 230 | 185 |
| 35 | temozolomide | 593 | 105 | 139 | 87.4 | 80.4 | 94.1 | 71.2 | 153 | 364 | 93.0 | 66.3 | 47.0 | 107 | 216 | 261 |
| 36 | enzastaurin | 340 | 505 | 187 | 302 | 71.9 | 31.1 | 411 | 218 | 98.9 | 152 | 129 | 232 | 180 | 263 | 145 |
| 37 | BMS-536924 | 124 | 154 | 424 | 81.5 | 246 | 69.0 | 111 | 121 | 96.8 | 152 | 77.4 | 93.6 | 120 | 137 | 128 |
| 38 | ZM336372 | 14.5 | 77.4 | 143 | 53.2 | 110 | 76.2 | 24.8 | 339 | 107 | 53.1 | 44.9 | 51.4 | 79.4 | 35.4 | 88.3 |

The first 3 entries again:

- NVP-TAE684 : WM1716: 87.8; WM1745: 239; COLO 800: 137; G-361: 144; WM115: 169; UACC-257: 13.8; RVH-421: 59.6; A101D: 56.6; A2058: 189; WM451Lu: 93.6; IPC-298: 124; RPMI-7951: 125; LB2518-MEL: 135; SK-MEL-28: 257; SK-MEL-30: 130
- pazopanib : WM1716: 67.3; WM1745: 70.7; COLO 800: 396; G-361: 77.2; WM115: 182; UACC-257: 32.2; RVH-421: 50.2; A101D: 105; A2058: 85.8; WM451Lu: 38.8; IPC-298: 59.5; RPMI-7951: 72.7; LB2518-MEL: 96.3; SK-MEL-28: 44.8; SK-MEL-30: 85.9
- GW2580 : WM1716: 39.6; WM1745: 91.1; COLO 800: 26.4; G-361: 66.4; WM115: 74.4; UACC-257: 24.8; RVH-421: 98.8; A101D: 81.9; A2058: 75.9; WM451Lu: 105; IPC-298: 46.1; RPMI-7951: 108; LB2518-MEL: 57.7; SK-MEL-28: 105; SK-MEL-30: 157